Reference: US20230130831A1 (Washington University, priority 2021, published 2023)
“Also recorded” adds a separate entry of the source. Where a SMILES comes first, the peptide text is derived from it. Bridges are numbered along the chain shown (N, C = ends). The star is where a group is joined. X1 = CC1(C)C(/C=C/C=C/C=C/C=C2/N(CCC(=O)*)c3ccc4ccccc4c3C2(C)C)=[N+](CCC(=O)[O-])c2ccc3ccccc3c21

What was measured:
[1] = test system: K/BxN (F1) mice with spontaneous arthritis; assay: Whole-body near-infrared fluorescence imaging in K/BxN spontaneous arthritis mice; conditions: 6 nmol i.v., 18 h post-injection
Method: The K/BxN mice with spontaneous arthritis (F1) were maintained in the laboratory. To establish serum transfer arthritis (STA), male 6-8 weeks old C57BL/6J mice were injected intraperitoneally with 150-175 μL of serum derived from F1 mice (8-9 weeks old). Day 0 denoted induction of serum transfer/disease. Clinical manifestation of arthritis in each paw was assessed daily on a scale of 0-3 with 0=no swelling or erythema, 1=slight swelling or erythema, 2=moderate erythema and swelling in multiple digits or entire paw, and 3=pronounced erythema and swelling of an entire paw, with a maximum score of 12 per mouse. The ankle thickness of two hind paws was measured using calipers. Animals were monitored for distress during arthritis induction, including their ability to move around the cage and access food/water.
In the K/BxN (F1) mice with spontaneous arthritis, inflammation occurs progressively in the paws, ankle, and knee joints leading to measurable local erythema and swelling. F1 mice with severe arthritis (9-10 weeks old) were injected intravenously with LS301 and imaged 18 h post-injection for near-infrared fluorescence using the Pearl Small Animal Imaging System.
Arthritic or control (non-diseased) mice were injected intravenously with 6 nmol LS301. […] Images shown represented at least two independent experiments and were taken at 18 h post-injection with mice in dorsal orientation. […]

[2] = general procedure: Fmoc solid-phase peptide synthesis; Fmoc-Lys(Boc)-Wang resin; HBTU/DIEA; conditions: whole synthesis, analytical HPLC, scale 0.1 mmol

Row | Molecule | diagnostic identification of animals with RA vs. healthy animals [1] | correlation between fluorescence signal and disease severity (clinical paw scoring) ([1]; F1 mice with early, intermediate or late-stage arthritis) | final HPLC purity [2] [%]
1 | CC1(C)C(/C=C/C=C/C=C/C=C2/N(CCC(=O)N[C@@H]3CSSC[C@@H](C(=O)N[C@@H](CCCCN)C(=O)O)NC(=O)[C@@H]4CCCN4C(=O)[C@H](CO)NC(=O)[C@H](CC(=O)O)NC(=O)[C@H](CCCNC(=N)N)NC(=O)CNC3=O)c3ccc4ccccc4c3C2(C)C)=[N+](CCC(=O)[O-])c2ccc3ccccc3c21 [LS301, cypate-cyclic (DCys-Gly-Arg-Asp-Ser-Pro-Cys)-Lys-OH] (X1-CGRDSPCK-OH; disulfide 1-7; configuration not given here) | diagnostically identified animals with RA vs. healthy (non-diseased) animals | positive correlation between fluorescence signal and disease severity; also recorded: fluorescence intensity correlating to disease severity | 
2 | cypate-cyclic (DCys-Gly-Arg-Asp-Ser-Pro-Cys)-Lys-OH |  |  | >95
